{"source": "patent EP0268928A2", "about": "“Safened pesticidal dispersion resin compositions for controlling soil borne pests and process for the preparation thereof” (priority 1986, dated 1988)", "origin": "cited, not measured here", "key": {"rats": {"test_system": "rats", "details": "technical grade"}, "rabbits": {"test_system": "rabbits", "details": "technical grade"}}, "note": "At least one read-out could not be matched to a standard name with certainty.", "data": [{"molecule": "CCOP(=S)(OCC)SCSCC", "note": "[phorate, 0,0-diethyl-S-(ethylthiomethyl)phosphorodithioate]", "values": [{"measurement": "acute dermal toxicities in rats", "setting": "rats", "value": "2.5-6.2 mg technical/kg"}, {"measurement": "acute dermal toxicities on rabbits", "setting": "rabbits", "value": "3.1-6.4 mg technical/kg"}]}]}
